Results: paper PMC7205891

By UniProt entry, the sequences of proteins in these tests, tags left out.
UniProt P51116: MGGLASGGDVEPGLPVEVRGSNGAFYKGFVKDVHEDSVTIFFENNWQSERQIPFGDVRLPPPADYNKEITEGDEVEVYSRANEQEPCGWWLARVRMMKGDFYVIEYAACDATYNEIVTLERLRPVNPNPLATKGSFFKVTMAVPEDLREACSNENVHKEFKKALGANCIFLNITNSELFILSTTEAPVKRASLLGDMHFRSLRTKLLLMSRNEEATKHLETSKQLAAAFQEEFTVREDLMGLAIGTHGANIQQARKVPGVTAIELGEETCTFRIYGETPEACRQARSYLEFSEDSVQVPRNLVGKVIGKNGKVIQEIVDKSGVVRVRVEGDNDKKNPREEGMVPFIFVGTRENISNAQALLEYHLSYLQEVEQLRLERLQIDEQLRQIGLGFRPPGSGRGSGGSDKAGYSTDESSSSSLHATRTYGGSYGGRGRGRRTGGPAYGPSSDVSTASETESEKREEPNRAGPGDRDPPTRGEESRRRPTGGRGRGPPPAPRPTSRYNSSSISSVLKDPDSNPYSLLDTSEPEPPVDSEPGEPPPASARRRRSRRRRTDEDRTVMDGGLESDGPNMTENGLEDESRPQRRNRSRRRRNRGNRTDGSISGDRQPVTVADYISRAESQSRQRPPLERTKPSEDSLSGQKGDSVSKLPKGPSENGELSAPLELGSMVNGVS
UniProt Q99873: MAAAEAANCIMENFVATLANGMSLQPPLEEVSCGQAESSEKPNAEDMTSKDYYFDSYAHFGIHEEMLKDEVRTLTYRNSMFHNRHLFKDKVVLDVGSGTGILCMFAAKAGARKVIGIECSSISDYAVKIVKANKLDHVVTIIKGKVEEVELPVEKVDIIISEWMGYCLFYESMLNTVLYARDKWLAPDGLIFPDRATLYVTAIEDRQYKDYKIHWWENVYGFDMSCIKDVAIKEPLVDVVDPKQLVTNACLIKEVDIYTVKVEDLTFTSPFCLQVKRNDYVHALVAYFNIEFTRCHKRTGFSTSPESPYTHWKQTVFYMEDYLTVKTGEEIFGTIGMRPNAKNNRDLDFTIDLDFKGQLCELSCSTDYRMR

B1: ras GTPase-activating protein-binding protein 2 (G3BP2), endogenous (protein, UniProt Q9UN86 1-482)
chain: MVMEKPSPLLVGREFVRQYYTLLNKAPEYLHRFYGRNSSYVHGGVDASGKPQEAVYGQNDIHHKVLSLNFSECHTKIRHVDAHATLSDGVVVQVMGLLSNSGQPERKFMQTFVLAPEGSVPNKFYVHNDMFRYEDEVFGDSEPELDEESEDEVEEEQEERQPSPEPVQENANSGYYEAHPVTNGIEEPLEESSHEPEPEPESETKTEELKPQVEEKNLEELEEKSTTPPPAEPVSLPQEPPKAFSWASVTSKNLPPSGTVSSSGIPPHVKAPVSQPRVEAKPEVQSQPPRVREQRPRERPGFPPRGPRPGRGDMEQNDSDNRRIIRYPDSHQLFVGNLPHDIDENELKEFFMSFGNVVELRINTKGVGGKLPNFGFVVFDDSEPVQRILIAKPIMFRGEVRLNVEEKKTRAARERETRGGGDDRRDIRRNDRGPGGPRGIVGGGMMRDRDGRGPPPRGGMAQKLGSGRGTGQMEGRFTGQRR

Each molecule was assayed against Flag-tagged full-length human UBAP2L, wild type (human) (UniProt Q14157) (assay: affinity purification with mass spectrometry; HEK293 cells transfected with Flag-UBAP2L or Flag empty plasmid; IP with a Flag antibody, SDS-PAGE, Coomassie blue, bands differing from the Flag control analysed by MS).

| Molecule | binding |
| --- | --- |
| fragile X mental retardation syndrome-related protein 2 (FXR2), endogenous (from UniProt P51116 1-673) | binds |
| protein arginine methyltransferase PRMT1, endogenous (from UniProt Q99873 1-371) (enzyme) | binds |
| B1 | binds |

Results are given in words; binding and its absence hold for the method and conditions named. In cells and extracts the contact can be indirect. A yes stands for co-enrichment or nearness to the bait. Other partners may have been found.
